Measurements from publication PMC4963475, “Two functionally distinct kinetochore pools of BubR1 ensure accurate chromosome segregation” (Nature Communications, 2016).
No constants are given. Whether binding was seen depends on the method and setting.

Chains of the proteins cited; added tags and fusions are not shown. Lines headed by an entry give the natural chain unless they say otherwise; changes in a name come on top.
UniProt O60566: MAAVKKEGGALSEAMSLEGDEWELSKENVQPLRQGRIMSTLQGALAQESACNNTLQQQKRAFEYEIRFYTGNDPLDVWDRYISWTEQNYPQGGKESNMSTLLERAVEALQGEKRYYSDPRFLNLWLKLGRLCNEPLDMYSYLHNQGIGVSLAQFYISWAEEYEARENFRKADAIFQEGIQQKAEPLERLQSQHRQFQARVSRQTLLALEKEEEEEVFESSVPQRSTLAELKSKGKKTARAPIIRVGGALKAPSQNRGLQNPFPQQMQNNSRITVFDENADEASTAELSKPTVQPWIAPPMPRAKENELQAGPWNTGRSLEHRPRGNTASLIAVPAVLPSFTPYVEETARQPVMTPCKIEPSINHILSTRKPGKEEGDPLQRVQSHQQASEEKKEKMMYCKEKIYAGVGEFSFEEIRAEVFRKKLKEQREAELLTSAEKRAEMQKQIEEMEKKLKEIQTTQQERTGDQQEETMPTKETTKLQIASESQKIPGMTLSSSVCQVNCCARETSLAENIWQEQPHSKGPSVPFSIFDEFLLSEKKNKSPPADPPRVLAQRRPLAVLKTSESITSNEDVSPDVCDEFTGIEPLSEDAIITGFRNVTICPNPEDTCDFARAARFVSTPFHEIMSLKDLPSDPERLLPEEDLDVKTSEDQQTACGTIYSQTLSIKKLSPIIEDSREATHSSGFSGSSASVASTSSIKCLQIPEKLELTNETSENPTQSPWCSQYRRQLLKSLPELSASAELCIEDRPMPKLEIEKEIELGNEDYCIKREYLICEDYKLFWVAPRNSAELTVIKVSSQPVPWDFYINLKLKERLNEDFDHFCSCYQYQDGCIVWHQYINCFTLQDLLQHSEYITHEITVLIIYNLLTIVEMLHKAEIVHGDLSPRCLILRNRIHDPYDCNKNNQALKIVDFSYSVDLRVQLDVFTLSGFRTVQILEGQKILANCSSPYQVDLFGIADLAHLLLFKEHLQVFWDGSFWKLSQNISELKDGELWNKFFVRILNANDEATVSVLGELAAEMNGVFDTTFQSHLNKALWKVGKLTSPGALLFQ
UniProt O43683: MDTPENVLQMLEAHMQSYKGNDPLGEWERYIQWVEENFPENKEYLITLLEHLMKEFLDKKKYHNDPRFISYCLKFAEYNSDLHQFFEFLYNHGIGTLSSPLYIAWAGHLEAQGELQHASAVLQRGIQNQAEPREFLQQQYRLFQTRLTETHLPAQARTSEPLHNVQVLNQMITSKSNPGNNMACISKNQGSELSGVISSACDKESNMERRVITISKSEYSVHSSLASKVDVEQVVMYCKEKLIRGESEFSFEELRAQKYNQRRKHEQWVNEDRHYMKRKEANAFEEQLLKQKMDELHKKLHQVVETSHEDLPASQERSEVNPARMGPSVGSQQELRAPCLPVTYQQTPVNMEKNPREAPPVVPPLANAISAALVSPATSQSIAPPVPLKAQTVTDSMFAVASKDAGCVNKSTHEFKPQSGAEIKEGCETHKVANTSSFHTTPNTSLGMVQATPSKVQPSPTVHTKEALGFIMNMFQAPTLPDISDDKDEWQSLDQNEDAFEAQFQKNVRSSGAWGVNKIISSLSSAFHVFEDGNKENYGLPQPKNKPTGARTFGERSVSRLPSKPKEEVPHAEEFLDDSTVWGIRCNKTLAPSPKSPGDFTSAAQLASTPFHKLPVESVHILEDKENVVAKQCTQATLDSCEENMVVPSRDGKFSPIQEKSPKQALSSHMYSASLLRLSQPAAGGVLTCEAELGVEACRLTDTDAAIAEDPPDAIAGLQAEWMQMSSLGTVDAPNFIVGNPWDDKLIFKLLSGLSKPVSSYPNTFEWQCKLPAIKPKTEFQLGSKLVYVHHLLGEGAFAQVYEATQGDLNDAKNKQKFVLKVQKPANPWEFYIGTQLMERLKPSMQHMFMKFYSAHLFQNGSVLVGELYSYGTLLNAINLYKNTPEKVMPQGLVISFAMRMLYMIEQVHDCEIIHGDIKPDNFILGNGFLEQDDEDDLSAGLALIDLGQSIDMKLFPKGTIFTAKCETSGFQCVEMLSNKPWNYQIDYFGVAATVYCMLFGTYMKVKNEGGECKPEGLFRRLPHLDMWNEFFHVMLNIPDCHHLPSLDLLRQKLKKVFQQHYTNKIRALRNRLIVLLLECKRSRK

Key:
[1] = biological target: BubR1/Bub3 complex (3×FLAG–BubR1 with untagged Bub3) (UniProt O60566); assay: MST; RED-…-labelled complex (25, 12.5 or 4 nM) with twofold serial dilutions of peptide; 50 mM Tris pH 7.8, 50 mM NaCl, 0.5 mM TCEP, 0.05% Tween 20; 40% MST power; NanoTemper Monolith NT.115; both purified
[2] = biological target: Bub1(1–553)/Bub3 complex (3×FLAG–Bub1(1–553) with untagged Bub3) (UniProt O43683); assay: as above

For TDNYSDLEVTDSHTVFID (phosphothreonine (Tp) at position 10; C-terminal amide) [MELT18p peptide, …-Tp-DSHTVFID-amide], the binding [1] was “no binding” and the binding [2] was “no binding”.
